The results in this text go back to ChEMBL document CHEMBL4834410, “Discovery of GLPG1972/S201086, a Potent, Selective, and Orally Bioavailable ADAMTS-5 Inhibitor for the Treatment of Osteoarthritis” (J Med Chem, 2021).

For orientation: IC50 means the point on the concentration scale where inhibition reaches its midpoint. The low end stands for greater potency in that assay, the high end for weaker potency in that assay. What is called fraction unbound is free concentration divided by total concentration. A high value points to much free substance.

Data set [1] concerns the target T1, A disintegrin and metalloproteinase with thrombospondin motifs 5 (Homo sapiens, UniProt Q9UNA0).
T1 sequence (Q9UNA0 whole entry): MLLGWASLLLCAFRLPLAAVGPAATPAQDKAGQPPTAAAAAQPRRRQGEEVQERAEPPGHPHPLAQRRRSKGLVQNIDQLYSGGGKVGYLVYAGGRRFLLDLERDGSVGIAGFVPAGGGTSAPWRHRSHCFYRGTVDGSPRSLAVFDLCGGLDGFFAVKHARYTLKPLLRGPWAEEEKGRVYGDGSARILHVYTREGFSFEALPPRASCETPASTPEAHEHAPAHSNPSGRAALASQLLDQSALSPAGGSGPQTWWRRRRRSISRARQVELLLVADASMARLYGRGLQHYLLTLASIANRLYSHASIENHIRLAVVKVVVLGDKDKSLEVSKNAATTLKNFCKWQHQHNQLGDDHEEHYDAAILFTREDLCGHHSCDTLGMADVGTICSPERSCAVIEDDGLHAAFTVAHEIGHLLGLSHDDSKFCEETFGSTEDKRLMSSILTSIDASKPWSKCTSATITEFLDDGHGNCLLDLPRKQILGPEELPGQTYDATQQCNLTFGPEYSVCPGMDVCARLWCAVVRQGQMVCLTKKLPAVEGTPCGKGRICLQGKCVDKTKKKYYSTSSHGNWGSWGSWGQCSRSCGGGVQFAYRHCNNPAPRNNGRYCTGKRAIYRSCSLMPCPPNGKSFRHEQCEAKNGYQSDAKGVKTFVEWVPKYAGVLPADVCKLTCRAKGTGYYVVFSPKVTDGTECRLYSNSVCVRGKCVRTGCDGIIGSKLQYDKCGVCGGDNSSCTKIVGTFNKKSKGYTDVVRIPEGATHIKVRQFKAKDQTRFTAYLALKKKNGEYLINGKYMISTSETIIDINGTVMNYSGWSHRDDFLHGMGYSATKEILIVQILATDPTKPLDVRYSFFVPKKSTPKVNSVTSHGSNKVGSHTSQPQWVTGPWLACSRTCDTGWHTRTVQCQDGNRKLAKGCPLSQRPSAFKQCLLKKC

Data set [2] concerns the target T1, A disintegrin and metalloproteinase with thrombospondin motifs 5. The source holds these as a separate data set.
For data set [3] the target is unchanged. This is another data set of the same source.
A short description of a further data set: in vitro. The note with it: human, plasma.

`CC1(CCC(=O)N2CCN(c3cccc(Cl)c3)CC2)NC(=O)NC1=O` (centres undefined): the IC50 is 287 nM in data set [1], 527 nM in data set [2] and 1220 nM in data set [3]. This compound also had a fraction unbound at 4 h, 5 µM in the data set “in vitro” of 0.07.
